Experimental data: PubChem BioAssay AID1259308 (NCATS, 2017)
Purpose: 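Genes whose loss raises luciferase production in HEK293 cells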 (primary screen). Cells: human HEK293 embryonic kidney cells stably expressing firefly luciferase (HEK-CMV-Luc2-Hygro). Reagents: single siRNA against human genes, 0.8 pmol siRNA per well. Duration: 72 h. Measurement: 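Reporter luminescence and viable-cell signal on separate replicate plates, given as percent of non-targeting control and median/MAD z-scores, plus per-cell luciferase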. Scale: total luciferase, z-score and total luciferase, % of control: higher = more reporter protein produced; luciferase per cell, z-score: higher = more reporter output per viable cell; viable cells, % of control: higher = more viable cells. Rule for the call: 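Active when the median/MAD z-score for overall luciferase is greater than 3; a gene was taken forward for validation with new siRNAs if at least two of its three siRNAs passed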. Meaning of the calls: active = raised luciferase; inactive = no rise.
The deposit covers about 59,000 reagents; this is a random part of them. Of all reagents, about 1,510 (2.6%) got an active call. 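Calls use total luciferase alone and ignore viability, so some active siRNAs may act by altering cell number.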 Unmarked entries are inactive. The numbers tell different reagents against one gene apart. No sequences are given here.

| gene knocked down | reagent no. | total luciferase, z-score | total luciferase, % of control | luciferase per cell, z-score | viable cells, % of control |
| --- | --- | --- | --- | --- | --- |
| TIMM21 (translocase of inner mitochondrial membrane 21) | 1 | 1.34 | 109 | 1.94 | 72.8 |
| TIMM21 (translocase of inner mitochondrial membrane 21) | 2 | -0.708 | 67.8 | -0.727 | 91.8 |
| TIMM21 (translocase of inner mitochondrial membrane 21) | 3 | -0.623 | 69.5 | -1.23 | 107 |
| SSX2IPP1 (SSX2IP pseudogene 1) | 1 | 0.784 | 97.5 | 1.18 | 79.8 |
| SSX2IPP1 (SSX2IP pseudogene 1) | 2 | 2.03 | 122 | 1.05 | 104 |
| SSX2IPP1 (SSX2IP pseudogene 1) | 3 | 1.65 | 115 | 1.22 | 93 |
| ZNF365 (zinc finger protein 365) | 1 | -2.59 | 30.4 | -2.43 | 64.3 |
| ZNF365 (zinc finger protein 365) | 2 | 1.35 | 109 | 1.68 | 78 |
| ZNF365 (zinc finger protein 365) | 3 | 0.533 | 92.5 | 0.416 | 92.6 |

The list goes on; the last 2 above are carried over.
| gene knocked down | reagent no. | total luciferase, z-score | total luciferase, % of control | luciferase per cell, z-score | viable cells, % of control |
| --- | --- | --- | --- | --- | --- |
| ZNF365 (zinc finger protein 365) | 2 | 1.35 | 109 | 1.68 | 78 |
| ZNF365 (zinc finger protein 365) | 3 | 0.533 | 92.5 | 0.416 | 92.6 |
| TLE4 (TLE family member 4, transcriptional corepressor) | 1 | -0.674 | 68.5 | -0.0631 | 77.8 |
| TLE4 (TLE family member 4, transcriptional corepressor) | 2 | 1.5 | 112 | 1.52 | 83.7 |
| TLE4 (TLE family member 4, transcriptional corepressor) | 3 | -0.523 | 71.5 | -0.562 | 92.6 |
| LST1 (leukocyte specific transcript 1) | 1 | -0.703 | 67.9 | -0.541 | 87.5 |
| LST1 (leukocyte specific transcript 1) | 2 | 0.152 | 84.9 | -0.316 | 103 |
| LST1 (leukocyte specific transcript 1) | 3 | -0.0657 | 80.6 | -0.478 | 102 |
| TMEM18 (transmembrane protein 18) | 1 | 0.184 | 85.5 | -0.647 | 113 |
| TMEM18 (transmembrane protein 18) | 2 | -0.833 | 65.3 | -0.339 | 79.8 |
| TMEM18 (transmembrane protein 18) | 3 | 0.0764 | 83.4 | -0.242 | 99.3 |
| CALHM6 (calcium homeostasis modulator family member 6) | 1 | 0.729 | 96.4 | 0.664 | 90.4 |
| CALHM6 (calcium homeostasis modulator family member 6) | 2 | 0.463 | 91.1 | -0.259 | 109 |
| CALHM6 (calcium homeostasis modulator family member 6) | 3 | 0.434 | 90.5 | 0.279 | 94 |
| CDC73 (cell division cycle 73) | 1 | 0.0123 | 82.1 | -0.0271 | 92.4 |
| CDC73 (cell division cycle 73) | 2 | -1.33 | 55.4 | -0.789 | 76.2 |
| CDC73 (cell division cycle 73) | 3 | 0.384 | 89.5 | 1.06 | 75.7 |
